{
  "source": "patent US20040014143A1",
  "about": "“Method and apparatus for detecting and monitoring peptides, and peptides identified therewith” (priority 2002, published 2004)",
  "assay": "In vivo microdialysis-CLC-MS2 monitoring of endogenous peptides in globus pallidus dialysate",
  "parameters": "species or system rat",
  "conditions": "endogenous peptide, globus pallidus of anesthetized rats, n=7",
  "data": [
    {"substance": "YGGFM [Met-enkephalin]", "values": [
      {"measurement": "(maximum) K+-stimulated dialysate level", "setting": "150 mM K+ through the probe", "value": "1900 ± 500", "unit": "pM"},
      {"measurement": "basal dialysate level", "setting": "basal conditions", "value": "60 ± 30", "unit": "pM"}
    ]}
  ]
}
